No constants are given. Whether binding was seen depends on the method and setting. Binding seen in cells or lysates may run through a third protein. A yes stands for co-enrichment or nearness to the bait. Other partners may have been found.
Molecular target: 3xFLAG-BPLF1 (amino acid residues 1-235), N-terminal domain of the Epstein-Barr virus large tegument protein (Epstein-Barr virus (EBV)) (UniProt P03186)
Test: affinity purification with mass spectrometry; tandem mass spectrometry of FLAG immunoprecipitates from cells transfected with FLAG-BPLF1, FLAG-BPLF1[C61A] or FLAG-empty vector; hits absent in duplicate vector samples and detected in both BPLF1 and BPLF1[C61A] immunoprecipitates; data set previously reported (ref. 24)

| Molecule | binding |
| --- | --- |
| PDCD6IP (from UniProt Q8WUM4 1-868) | binds |
| BAG3 (from UniProt O95817 1-575) | binds |
| PDCD6 (from UniProt O75340 1-191) | binds |
| ARF4 (from UniProt P18085 1-180) | binds |
| ANXA11 (annexin A11) (from UniProt P50995 1-505) | binds |
| GBF1 (from UniProt Q92538 1-1860) | binds |
| BAG6 (from UniProt P46379 1-1132) | binds |
| USO1 (protein, UniProt O60763 1-962) MNFLRGVMGGQSAGPQHTEAETIQKLCDRVASSTLLDDRRNAVRALKSLSKKYRLEVGIQAMEHLIHVLQTDRSDSEIIGYALDTLYNIISNEEEEEVEENSTRQSEDLGSQFTEIFIKQQENVTLLLSLLEEFDFHVRWPGVKLLTSLLKQLGPQVQQIILVSPMGVSRLMDLLADSREVIRNDGVLLLQALTRSNGAIQKIVAFENAFERLLDIISEEGNSDGGIVVEDCLILLQNLLKNNNSNQNFFKEGSYIQRMKPWFEVGDENSGWSAQKVTNLHLMLQLVRVLVSPTNPPGATSSCQKAMFQCGLLQQLCTILMATGVPADILTETINTVSEVIRGCQVNQDYFASVNAPSNPPRPAIVVLLMSMVNERQPFVLRCAVLYCFQCFLYKNQKGQGEIVSTLLPSTIDATGNSVSAGQLLCGGLFSTDSLSNWCAAVALAHALQENATQKEQLLRVQLATSIGNPPVSLLQQCTNILSQGSKIQTRVGLLMLLCTWLSNCPIAVTHFLHNSANVPFLTGQIAENLGEEEQLVQGLCALLLGISIYFNDNSLESYMKEKLKQLIEKRIGKENFIEKLGFISKHELYSRASQKPQPNFPSPEYMIFDHEFTKLVKELEGVITKAIYKSSEEDKKEEEVKKTLEQHDNIVTHYKNMIREQDLQLEELRQQVSTLKCQNEQLQTAVTQQVSQIQQHKDQYNLLKIQLGKDNQHQGSYSEGAQMNGIQPEEIGRLREEIEELKRNQELLQSQLTEKDSMIENMKSSQTSGTNEQSSAIVSARDSEQVAELKQELATLKSQLNSQSVEITKLQTEKQELLQKTEAFAKSVEVQGETETIIATKTTDVEGRLSALLQETKELKNEIKALSEERTAIKEQLDSSNSTIAILQTEKDKLELEITDSKKEQDDLLVLLADQDQKILSLKNKLKDLGHPVEEEDELESGDQEDEDDESEDPGKDLDHI | binds |
